The target in this assay is Human KLK1 (Homo sapiens (Human), UniProt P06870). Description: Determination of the IC50 for KLK1. The class given is biochemical. The conditions noted are these: 25° C., substrate H-DVal-Leu-Arg-AFC. On the procedure: KLK1 inhibitory activity in vitro was determined using standard published methods (see e.g. Johansen et al., Int. J. Tiss. Reac. 1986, 8, 185; Shori et al., Biochem. Pharmacol., 1992, 43, 1209; Sturzebecher et al., Biol. Chem. Hoppe-Seyler, 1992, 373, 1025). Human KLK1 (Callbiochem) was incubated at 25° C. with the fluorogenic substrate H-DVal-Leu-Arg-AFC and various concentrations of the test compound. Residual enzyme activity (initial rate of reaction) was determined by measuring the change in […] at 410 nm and the IC50 value for the test compound was determined.

Chains of the proteins cited; added tags and fusions are not shown. Residues count along the entry.
UniProt P06870, 25-262: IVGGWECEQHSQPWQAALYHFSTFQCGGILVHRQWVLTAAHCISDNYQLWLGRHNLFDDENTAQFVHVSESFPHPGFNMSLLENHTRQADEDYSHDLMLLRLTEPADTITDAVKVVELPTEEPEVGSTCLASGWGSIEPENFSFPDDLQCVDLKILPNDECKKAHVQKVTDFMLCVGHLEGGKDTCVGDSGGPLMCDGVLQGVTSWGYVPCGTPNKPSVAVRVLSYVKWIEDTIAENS

Each structure is given as a SMILES string.

With `COCc1nn(Cc2ccc(Cn3ccccc3=O)cc2)cc1C(=O)NCc1c(F)ccc(OC)c1C(F)F` [Reference Example F, 3-Methoxymethyl-1-[4-(2-oxo-2H-pyridin-1-ylmethyl)-benzyl]-1H-pyrazole-4-carboxylic acid 2-difluoromethyl-6-fluoro-3-methoxy-benzylamide, reference compound], the IC50 (usually the concentration that inhibits the measured activity by half) is > 40 µM.

For the origin of these results see patent publication US11180484B2, “Pyrazole derivatives as plasma kallikrein inhibitors” (KALVISTA PHARMACEUTICALS LIMITED, priority 2016, dated 2021).
